The text below walks through data of paper PMC12406199, “NanoDSF Screening for Anti-tubulin Agents Uncovers New Structure–Activity Insights” (Journal of Medicinal Chemistry, 2025).

The term IC50 denotes the concentration that inhibits the measured activity by half. Low values mean inhibition by little substance, high ones a need for much substance.

This experiment deals with U87MG. In words: cells. More on the design: MTT viability assay on U87MG glioblastoma cells. The note with it: Homo sapiens, U-87 MG, 72 h. The procedure: Glioblastoma cell culture routines, viability, and proliferation assays were performed as previously described. U87MG cells were maintained in complete MEM media supplemented with 10% FBS and 2 mM L-glutamine (Invitrogen, Paris, France). For cytotoxicity assays, cells were counted and plated in 96-well flat-bottom plates (50,000 cells/mL, 5000 cells per well). After 24 h, the cells were treated with increasing concentrations of the MTAs (0, 1, 5, 10, and 20–40 μM) in a vehicle solution, containing 0.05% DMSO. All concentrations were done in triplicates. The surviving cells were quantified after 72 h by the tetrazolium bromide MTT-assay, according to the manufacturer’s instructions. After cell lysis, the optical density was measured at 600 nm using a Multiskan MS Thermo plate reader (LabSystems, Waltham, MA, USA).

Turning to `CN1C[C@@H]2c3ccccc3Oc3ccc(Cl)cc3[C@H]2C1` (racemic) [ANP, Asenapine], the IC50 stood at 22.5 ± 4 µM.
